Reference: paper PMC2806833

Protein sequences, listed by entry. Tags and fused reporters are not part of them. Residues count along the entry.
UniProt Q16512, residues 581-942: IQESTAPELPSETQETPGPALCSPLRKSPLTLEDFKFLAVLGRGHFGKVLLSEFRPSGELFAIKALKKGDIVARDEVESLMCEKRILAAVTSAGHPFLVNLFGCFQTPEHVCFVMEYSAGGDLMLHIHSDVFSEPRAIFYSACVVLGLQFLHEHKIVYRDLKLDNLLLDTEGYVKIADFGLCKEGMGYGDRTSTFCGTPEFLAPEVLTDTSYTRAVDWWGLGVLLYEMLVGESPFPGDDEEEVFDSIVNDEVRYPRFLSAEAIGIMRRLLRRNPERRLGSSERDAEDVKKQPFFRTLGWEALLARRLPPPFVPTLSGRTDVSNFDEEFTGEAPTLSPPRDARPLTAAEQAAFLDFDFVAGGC
UniProt P29476: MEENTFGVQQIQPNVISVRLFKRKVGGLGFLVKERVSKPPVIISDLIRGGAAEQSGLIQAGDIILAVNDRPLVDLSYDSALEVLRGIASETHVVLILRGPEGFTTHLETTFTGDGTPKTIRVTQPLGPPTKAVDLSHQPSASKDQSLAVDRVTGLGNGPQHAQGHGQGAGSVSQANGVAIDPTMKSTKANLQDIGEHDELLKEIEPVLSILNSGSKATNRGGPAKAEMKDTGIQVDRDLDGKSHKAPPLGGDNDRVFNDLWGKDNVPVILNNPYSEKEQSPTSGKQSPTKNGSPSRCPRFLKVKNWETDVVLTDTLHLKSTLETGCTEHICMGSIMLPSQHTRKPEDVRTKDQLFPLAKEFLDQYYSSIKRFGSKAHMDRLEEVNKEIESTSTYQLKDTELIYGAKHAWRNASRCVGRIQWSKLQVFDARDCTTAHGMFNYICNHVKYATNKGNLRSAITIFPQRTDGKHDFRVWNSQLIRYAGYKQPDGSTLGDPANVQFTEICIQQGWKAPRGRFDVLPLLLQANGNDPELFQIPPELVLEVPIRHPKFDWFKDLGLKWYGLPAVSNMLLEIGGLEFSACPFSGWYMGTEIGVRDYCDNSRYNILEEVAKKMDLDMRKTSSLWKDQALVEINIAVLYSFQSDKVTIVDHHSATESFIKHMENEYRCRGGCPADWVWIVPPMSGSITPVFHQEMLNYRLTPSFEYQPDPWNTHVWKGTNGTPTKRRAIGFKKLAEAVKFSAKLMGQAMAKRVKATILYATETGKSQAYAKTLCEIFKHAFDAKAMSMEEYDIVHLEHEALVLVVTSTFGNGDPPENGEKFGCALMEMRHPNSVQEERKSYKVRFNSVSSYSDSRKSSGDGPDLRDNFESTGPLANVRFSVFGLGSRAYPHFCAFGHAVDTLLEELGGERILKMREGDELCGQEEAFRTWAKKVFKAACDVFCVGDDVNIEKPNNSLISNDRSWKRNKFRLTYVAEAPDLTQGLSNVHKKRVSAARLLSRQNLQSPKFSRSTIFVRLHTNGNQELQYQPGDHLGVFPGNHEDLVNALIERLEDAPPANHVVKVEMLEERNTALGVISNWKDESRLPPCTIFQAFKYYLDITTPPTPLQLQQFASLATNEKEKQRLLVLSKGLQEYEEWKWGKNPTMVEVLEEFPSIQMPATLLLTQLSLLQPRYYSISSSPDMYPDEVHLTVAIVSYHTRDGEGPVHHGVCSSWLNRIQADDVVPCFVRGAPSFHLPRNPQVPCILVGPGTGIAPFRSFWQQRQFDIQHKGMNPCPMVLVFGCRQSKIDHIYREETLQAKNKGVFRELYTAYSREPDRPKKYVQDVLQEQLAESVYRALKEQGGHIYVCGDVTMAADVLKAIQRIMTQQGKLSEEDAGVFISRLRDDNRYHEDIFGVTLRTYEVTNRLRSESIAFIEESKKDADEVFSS
UniProt P19332: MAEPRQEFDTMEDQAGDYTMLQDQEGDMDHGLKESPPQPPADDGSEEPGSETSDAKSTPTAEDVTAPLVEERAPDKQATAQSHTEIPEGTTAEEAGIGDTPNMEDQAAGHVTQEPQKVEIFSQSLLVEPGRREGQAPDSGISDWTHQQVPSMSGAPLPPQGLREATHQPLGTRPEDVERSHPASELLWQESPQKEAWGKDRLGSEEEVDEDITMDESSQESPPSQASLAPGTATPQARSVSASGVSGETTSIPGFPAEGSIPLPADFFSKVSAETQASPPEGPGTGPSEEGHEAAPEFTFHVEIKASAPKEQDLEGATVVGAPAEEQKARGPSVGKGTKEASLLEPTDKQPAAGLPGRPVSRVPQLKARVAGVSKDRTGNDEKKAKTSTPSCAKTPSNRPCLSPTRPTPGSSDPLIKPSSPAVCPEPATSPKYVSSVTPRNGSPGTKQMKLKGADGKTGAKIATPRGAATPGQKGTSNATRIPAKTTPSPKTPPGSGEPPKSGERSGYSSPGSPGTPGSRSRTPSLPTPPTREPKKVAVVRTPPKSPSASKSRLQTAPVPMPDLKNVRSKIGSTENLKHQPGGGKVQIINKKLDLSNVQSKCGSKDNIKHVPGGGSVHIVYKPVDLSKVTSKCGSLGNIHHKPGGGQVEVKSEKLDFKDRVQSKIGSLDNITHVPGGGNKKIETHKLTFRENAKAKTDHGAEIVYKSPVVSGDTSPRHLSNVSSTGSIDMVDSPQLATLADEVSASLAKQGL
UniProt P08592, residues 18-770: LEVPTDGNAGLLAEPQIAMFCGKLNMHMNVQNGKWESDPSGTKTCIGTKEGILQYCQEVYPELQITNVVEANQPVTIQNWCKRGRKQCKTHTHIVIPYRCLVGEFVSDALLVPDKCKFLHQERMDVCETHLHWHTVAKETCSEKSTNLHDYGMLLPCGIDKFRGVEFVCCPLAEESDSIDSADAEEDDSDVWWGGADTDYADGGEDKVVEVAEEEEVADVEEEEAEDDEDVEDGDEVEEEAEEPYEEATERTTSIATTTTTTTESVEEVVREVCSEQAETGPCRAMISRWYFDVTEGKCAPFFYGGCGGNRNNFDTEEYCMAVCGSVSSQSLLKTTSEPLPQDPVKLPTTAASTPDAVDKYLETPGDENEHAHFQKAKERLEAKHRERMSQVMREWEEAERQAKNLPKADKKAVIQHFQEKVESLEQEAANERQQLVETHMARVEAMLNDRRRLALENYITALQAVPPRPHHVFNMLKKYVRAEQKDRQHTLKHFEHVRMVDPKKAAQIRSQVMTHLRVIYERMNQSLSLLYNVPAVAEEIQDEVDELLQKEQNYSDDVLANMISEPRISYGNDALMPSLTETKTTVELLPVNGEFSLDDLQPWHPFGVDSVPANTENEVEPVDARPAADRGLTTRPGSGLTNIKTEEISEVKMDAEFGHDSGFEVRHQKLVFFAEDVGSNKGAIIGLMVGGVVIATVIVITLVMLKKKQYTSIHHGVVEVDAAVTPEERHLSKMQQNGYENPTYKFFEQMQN

Tests used:
Assay in all cases: affinity purification with mass spectrometry; 5 nmol GST-fused kinase fragment immobilised on a 250 µl glutathione-sepharose column; rat brain cytosol or P2 fraction loaded; washed with buffer A (20 mM Tris/HCl pH 7.5, 1 mM EDTA, 1 mM DTT) and buffer A with 50 mM NaCl; 1 M NaCl eluate digested with trypsin, LC-MS/MS, Mascot; only the target purified
[1] = target: GST-Rho-kinase-cat (active catalytic fragment of Rho-kinase/ROCK/ROK, 6-553 amino acids) (UniProt Q28021)
[2] = target: GST-PKN-cat (581-942 amino acids) (UniProt Q16512)
[3] = target: T1, GST-Rho-kinase-cat-KD (kinase-deficient mutant of Rho-kinase-cat, Lys121 replaced by Gly) (UniProt Q28021)
T1 sequence: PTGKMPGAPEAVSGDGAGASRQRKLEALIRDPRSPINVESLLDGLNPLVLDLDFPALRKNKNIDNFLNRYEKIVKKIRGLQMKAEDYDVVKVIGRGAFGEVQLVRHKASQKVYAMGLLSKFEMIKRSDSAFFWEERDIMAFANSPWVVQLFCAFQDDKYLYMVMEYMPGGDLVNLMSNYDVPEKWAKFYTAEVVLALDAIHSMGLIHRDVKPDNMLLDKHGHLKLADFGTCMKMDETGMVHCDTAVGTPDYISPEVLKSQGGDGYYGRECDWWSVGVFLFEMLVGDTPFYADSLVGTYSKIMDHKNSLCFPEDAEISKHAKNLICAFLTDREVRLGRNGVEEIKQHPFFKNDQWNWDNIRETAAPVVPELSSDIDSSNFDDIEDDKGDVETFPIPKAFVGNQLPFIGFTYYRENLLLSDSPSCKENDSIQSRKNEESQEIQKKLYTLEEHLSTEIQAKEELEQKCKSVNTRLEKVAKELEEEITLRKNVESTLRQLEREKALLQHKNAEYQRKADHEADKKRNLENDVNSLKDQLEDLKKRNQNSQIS

[4] = target: GST-Rho-kinase-cat (active catalytic fragment of Rho-kinase/ROCK/ROK, 6-553 amino acids) (UniProt Q28021); remark: listed apart in the source
[5] = target: GST-PKN-cat (581-942 amino acids) (UniProt Q16512); remark: listed apart in the source
[6] = target: T1, GST-Rho-kinase-cat-KD (kinase-deficient mutant of Rho-kinase-cat, Lys121 replaced by Gly); remark: listed apart in the source

Molecule: brain spectrin (rat (endogenous in rat brain))
binding [3]: no binding

Molecule: nNOS (from UniProt P29476 1-1429)
binding [1]: binds
binding [3]: no binding

B3: AP180 (protein, UniProt Q05140 1-915)
chain: MSGQTLTDRIAAAQYSVTGSAVARAVCKATTHEVMGPKKKHLDYLIQATNETNVNIPQMADTLFERATNSSWVVVFKALVTTHHLMVHGNERFIQYLASRNTLFNLSNFLDKSGSHGYDMSTFIRRYSRYLNEKAFSYRQMAFDFARVKKGADGVMRTMVPEKLLKSMPILQGQIDALLEFDVHPNELTNGVINAAFMLLFKDLIKLFACYNDGVINLLEKFFEMKKGQCKDALEIYKRFLTRMTRVSEFLKVADEVGIDKGDIPDLTQAPSSLMETLEQHLNTLEGKKPGNNEGSGAPSPLSKSSPATTVTSPNSTPAKTIDTSPPVDIFATASAAAPVSSAKPSSDLLDLQPDFSGARAGAAAPVPPPTGGATAWGDLLGEDSLAALSSVPSEAPISDPFAPEPSPPTTTTEPASASASATTAVTAATTEVDLFGDAFAASPGEAPAASEGATAPATPAPVAAALDACSGNDPFAPSEGSAEAAPELDLFAMKPPETSAPVVTPTASTAPPVPATAPSPAPTAVAATAATTTAAAAATTTATTSAAAATTAAAPPALDIFGDLFDSAPEVAAASKPDVAPSIDLFGTDAFSSPPRGASPVPESSLTADLLSGSGFHCAEDDRHVPLFFTAVDAFAAPSPASTASPAKAESSGVIDLFGDAFGSSASETQPAPQAVSSSSASADLLAGFGGSFMAPSTTPVTPAQNNLLQPNFEAAFGTTPSTSSSSSFDPSGDLLMPTMAPSGQPAPVSMVPPSPAMSASKGLGSDLDSSLASLVGNLGISGTTSKKGDLQWNAGEKKLTGGANWQPKVTPATWSAGVPPQGTVPPTSSVPPGAGAPSVGQPGAGYGMPPAGTGMTMMPQQPVMFAQPMMRPPFGAAAVPGTQLSPSPTPATQSPKKPPAKDPLADLNIKDFL
binding [5]: binds weakly

The remaining lines, values ahead:

binding [1]: binds
binding [2]: binds
Molecule: Tau (from UniProt P19332 1-752)

binding [1]: binds
binding [2]: binds weakly
Molecule: amyloid precursor protein (APP) (from UniProt P08592 18-770)

binding [4]: binds
binding [5]: binds
B1: Doublecortin (DCX) (protein, UniProt Q9ESI7 1-365)
chain: MELDFGHFDERDKASRNMRGSRMNGLPSPTHSAHCSFYRTRTLQALSNEKKAKKVRFYRNGDRYFKGIVYAVSSDRFRSFDALLADLTRSLSDNINLLQGVRYIYTIDGSRKIGSMDELEEGESYVCSSDNFFKKVEYTKNVNPNWSVNVKTSANMKAPQSLASSNSAQARENKDFVRPKLVTIIRSGVKPRKAVRVLLNKKTAHSFEQVLTDITEAIKLETGVVKKLYTLDGKQVTCLHDFFGDDDVFIACGPEKFRYAQDDFSLDENECRVMKGNPSATAGPKASPTPQKTSAKSPGPMRRSKSPADSGNDQDANGTSSSQLSTPKSKQSPISTPTSPGSLRKHKDLYLPLSLDDSDSLGDSM

binding [4]: binds
binding [5]: binds weakly
binding [6]: binds
B2: MYPT1 (protein, UniProt Q10728 1-1032)
chain: MKMADAKQKRNEQLKRWIGSETDLEPPVVKRQKTKVKFDDGAVFLAACSSGDTDEVLKLLHRGADINYANVDGLTALHQACIDDNVDMVKFLVENGANINQPDNEGWIPLHAAASCGYLDIAEFLIGQGAHVGAVNSEGDTPLDIAEEEAMEELLQNEVNRQGVDIEAARKEEERIMLRDARQWLNSGHISDVRHAKSGGTALHVAAAKGYTEVLKLLIQAGYDVNIKDYDGWTPLHAAAHWGKEEACRILVDNLCDMETVNKVGQTAFDVADEDILGYLEELQKKQNLLHSEKRDKKSPLIESTANMENNQPQKTFKNKETLIIEPEKNASRIESLEQEKADEEEEGKKDESSCSSEEDEEDDSESEAETDKTKPMASVTNAHTASTQAAPAAVTTPTLSSNQGTPTSPVKKFPTSTTKISPKEEERKDESPASWRLGLRKTGSYGALAEITASKEAQKEKDTAGVIRSASSPRLSSSLDNKEKEKDNKGTRLAYVAPTIPRRLGSTSDIEEKENRESSNLRTSSSYTRRKWEDDLKKNSSINEGSTYHRSCSFGRRQDDLISCSVPSTTSTPTVTSAAGLQKSFLSSTSTTAKTPPGSSPAGTQSSTSNRLWAEDSTEKEKDSAPTAATILVAPTVVSAAASSTTALTTTTAGTLSSTSEVRERRRSYLTPVRDEESESQRKARSRQARQSRRSTQGVTLTDLQEAEKTIGRSRSTRTREQENEEKDKEEKEKQDKEKQEEKKESEVSREDEYKQKYSRTYDETYARYRPVSTSSSSTPSSSSLSTLGSSLYASSQLNRPNSLVGITSAYSRGLTKDNEREGEKKEEEKEGEDKSQPKSIRERRRPREKRRSTGVSFWTQDSDENEQERQSDTEDGSSKRDTQTDSVSRYDSSSTSSSDRYDSLLGRSASYSYLEERKPYGSRLEKDDSTDFKKLYEQILAENEKLKAQLHDTNMELTDLKLQLEKATQRQERFADRSLLEMEKRERRALERRISEMEEELKMLPDLKADNQRLKDENGALIRVISKLSK

Read-outs that look alike come from different tables or passages of the source. Results are given in words; binding and its absence hold for the method and conditions named. In cells and extracts the contact can be indirect. These calls come from enrichment with a bait or labelling near it, and not all partners need be listed. For some of these results: A no says only that the protein was not detected with the bait. For some of these results: Where a sequence is shown, tags or fusion partners need not be part of it. One block for each molecule: values may come before it.
